The record followed here is patent publication US6124380A, “Metal containing e-coat catalysts optionally with tin catalysts” (priority 1999, dated 2000).

Data set [1] in a line: MIBK double rubs on cured panels.
Data set [2] is described as follows: Solvent extraction test: acetone resistance (% weight loss) of cured coating.
A short description of data set [3]: Gel time, powder coating formulation, Brookfield Viscometer. The note with it: cure at 150° C., […] Sn; for Increase in viscosity: >60 min.
Data set [4] is described as follows: MIBK rub test of cured E-coat panels (abrasion rating, degree of cure). On the set-up: key: 1: No noticeable effect on coating; 2: Faint abrasion of coating; 3: Moderate abrasion of coating; 4: Significant abrasion of coating; 5: Metal surface exposed. The conditions noted are these: 20 min, 0.53 weight % tin on solids.
A short description of data set [5]: Gel time / viscosity, free isocyanate with polyol, Brookfield Viscometer. The conditions noted are these: 67° F.
The mark [6] stands for this setting: 150° C. cure, 0.25% Sn on solids.
Setting [7] is: 150° C. cure, 0.5% Sn on solids.
[8] abbreviates: 180° C. cure, 0.25% Sn on solids.
The mark [9] stands for this setting: 180° C. cure, 0.5% Sn on solids.
Setting [10] is: 140 °C cure, 0.90% metal on solids.
The mark [11] stands for this setting: 150 °C cure, 0.90% metal on solids.
[12] abbreviates: 160 °C cure, 0.90% metal on solids.
The mark [13] stands for this setting: 180 °C cure, 0.90% metal on solids.
The mark [14] stands for this setting: 200 °C cure, 0.90% metal on solids.
[15] abbreviates: 220 volts, 150° C. cure, 0.25% Sn on solids.
The mark [16] stands for this setting: 220 volts, 150° C. cure, 0.5% Sn on solids.
Where [17] appears, read: 220 volts, 150° C. cure, 1% Sn on solids.
Where [18] appears, read: 220 volts, 180° C. cure, 0.25% Sn on solids.
Setting [19] is: 220 volts, 180° C. cure, 0.5% Sn on solids.
Setting [20] is: 220 volts, 180° C. cure, 1% Sn on solids.

Values joined by “and” are separate entries in the source; they are usually repeats but may differ in a detail not shown here. Equal values may be shown once.

For the compound `CCCCC(CC)[CH2][Sn]([CH2]C(CC)CCCC)([CH2]C(CC)CCCC)[O][Sn]([CH2]C(CC)CCCC)([CH2]C(CC)CCCC)[CH2]C(CC)CCCC` (centres unmarked) [TEHTO, Bis[tri(2-ethylhexyl)tin] oxide], the “MIBK Double Rubs” value in data set [1] (setting [6]) was 1; in data set [1] (setting [7]) it was 50; in data set [1] (150° C. cure, 1% Sn on solids) it was no less than 200; in data set [1] (setting [8]) it was no less than 200; in data set [1] (setting [9]), no less than 200; in data set [1] (180° C. cure, 1% Sn on solids), no less than 200.

With `[O]=[Zn]` [ZnO, zinc oxide], the “% Weight Loss (acetone)” value in data set [2] (setting [10]) came out at 17.8%; in data set [2] (setting [11]), 7.0%; in data set [2] (setting [12]), 3.3%; in data set [2] (setting [13]) it was 3.1%; in data set [2] (setting [14]) it was 5.2%.

As to Trioctyltin acetate [TOTA], the “% Weight Loss (acetone)” value in data set [2] (setting [6]) is on record as 56.3%; in data set [2] (setting [7]), 32.1%; in data set [2] (150° C. cure, 1% Sn on solids) it was 20.3%; in data set [2] (setting [8]) it was 3.0%; in data set [2] (setting [9]), 1.1%; in data set [2] (180° C. cure, 1% Sn on solids), 2.7%. The “% Weight Loss (acetone)” value is on record as 11.4% in data set [2] (setting [15]); 24.0% in data set [2] (setting [16]); 17.0% in data set [2] (setting [17]); 3.3% in data set [2] (setting [18]); 5.2% in data set [2] (setting [19]); 4.8% in data set [2] (setting [20]). For the same compound, the “MIBK Double Rubs” value is given as 4 in data set [1] (setting [15]); 2 in data set [1] (setting [16]); 50 in data set [1] (setting [17]); no less than 200 in data set [1] (setting [18]); no less than 200 in data set [1] (setting [19]); no less than 200 in data set [1] (setting [20]). In addition, the “Gel Time” value in data set [3] was greater than 60 min. Moreover, in data set [3], the Increase in viscosity result was “no inc. in visc”.

Regarding `CCC[CH2][Sn](=[O])[CH2]CCC` [DBTO, Dibutyltin oxide, reference compound], the “% Weight Loss (acetone)” value in data set [2] (control, 150 °C cure, 0.5% metal on solids) was found to be 52.5%; in data set [2] (control, 150 °C cure, 1.0% metal on solids), 32.7%; in data set [2] (control, 160 °C cure, 0.5% metal on solids) it was 20.5%; in data set [2] (control, 160 °C cure, 1.0% metal on solids), 3.5%; in data set [2] (control, 180 °C cure, 1.0% metal on solids) it was 0.2%; in data set [2] (control, 200 °C cure, 0.5% metal on solids), 1.1%. In data set [2] (control, 200 °C cure, 1.0% metal on solids), the “% Weight Loss (acetone)” value was 2.9%. Further, the “MIBK Double Rubs” value in data set [1] (setting [6]) is given as 2; in data set [1] (setting [7]), 5; in data set [1] (150° C. cure, 1% Sn on solids), 30; in data set [1] (setting [8]), no less than 200; in data set [1] (setting [9]) it was no less than 200; in data set [1] (180° C. cure, 1% Sn on solids) it was no less than 200. The “MIBK Double Rubs” value in data set [1] (Table 10, 150 °C cure, 0.5% metal on solids) is listed as 5; in data set [1] (Table 10, 150 °C cure, 1.0% metal on solids) it was 30; in data set [1] (Table 10, 180 °C cure, 0.5% metal on solids), no less than 200; in data set [1] (Table 10, 180 °C cure, 1.0% metal on solids), no less than 200. For the same compound, the “Rating for Abrasion by MIBK Rub Test” value in data set [4] (135 °C oven) is recorded as 5; in data set [4] (148.8 °C oven) it was 4; in data set [4] (165.5-185 °C oven), 1.

Consider `CCCCCCCCCCC[CH2][Sn]([CH2]CCCCCCCCCCC)([CH2]CCCCCCCCCCC)[O][Sn]([CH2]CCCCCCCCCCC)([CH2]CCCCCCCCCCC)[CH2]CCCCCCCCCCC` [TDTO, Bis(tridodecyltin) oxide], for which the “MIBK Double Rubs” value in data set [1] (setting [15]) is reported as 1; in data set [1] (setting [16]), 150; in data set [1] (setting [17]), no less than 200; in data set [1] (setting [18]) it was no less than 200; in data set [1] (setting [19]), 200; in data set [1] (setting [20]) it was 50.

As to Tricyclohexyltin oxide [TCTH], the “% Weight Loss (acetone)” value in data set [2] (setting [6]) stood at 63.8%; in data set [2] (setting [7]) it was 41.2%; in data set [2] (150° C. cure, 1% Sn on solids), 17.6%; in data set [2] (setting [8]), 5.1%; in data set [2] (setting [9]), 2.1%; in data set [2] (180° C. cure, 1% Sn on solids), 5.4%. The “MIBK Double Rubs” value in data set [1] (setting [6]) is given as 1; in data set [1] (setting [7]), 5; in data set [1] (150° C. cure, 1% Sn on solids), 100; in data set [1] (setting [8]) it was no less than 200; in data set [1] (setting [9]) it was no less than 200; in data set [1] (180° C. cure, 1% Sn on solids), no less than 200.

As to `[OH][Sn]([c]1ccccc1)([c]1ccccc1)[c]1ccccc1` [TPTH, Triphenyltin hydroxide], in data set [1] (setting [7]), the “MIBK Double Rubs” value worked out at 5.

In the case of “Dibutyl tin diacetate [reference compound]”, the “Gel Time” value in data set [3] is 44.5 min.

On to Trioctyltin laurate [TOTL], for which the “% Weight Loss (acetone)” value in data set [2] (setting [6]) is recorded as 68.4%; in data set [2] (setting [7]) it was 58.6%; in data set [2] (150° C. cure, 1% Sn on solids), 42.1%; in data set [2] (setting [8]) it was 14.3%; in data set [2] (setting [9]), 0.1%; in data set [2] (180° C. cure, 1% Sn on solids) it was -2.7%. Also, the “MIBK Double Rubs” value in data set [1] (setting [6]) is reported as 2; in data set [1] (setting [7]), 2; in data set [1] (150° C. cure, 1% Sn on solids) it was 2; in data set [1] (setting [8]), 20; in data set [1] (setting [9]) it was no less than 200; in data set [1] (180° C. cure, 1% Sn on solids) it was no less than 200.

With `CC(=O)[O-].CC(=O)[O-].[Zn+2]` [Zn Acetate], the “% Weight Loss (acetone)” value in data set [2] (setting [10]) was 23.8%; in data set [2] (setting [11]), 10.1%; in data set [2] (setting [12]) it was 5.4%; in data set [2] (setting [13]), 14.0%; in data set [2] (setting [14]), 26.5%.

Consider `CCCCCCC[CH2][Sn]([CH2]CCCCCCC)([CH2]CCCCCCC)[O][Sn]([CH2]CCCCCCC)([CH2]CCCCCCC)[CH2]CCCCCCC` [TOTO, Bis(trioctyltin)oxide], for which the “% Weight Loss (acetone)” value in data set [2] (140 °C cure, 0.2% metal on solids) came to 60.3%; in data set [2] (150 °C cure, 0.2% metal on solids), 29.4%; in data set [2] (160 °C cure, 0.2% metal on solids) it was 7.2%; in data set [2] (180 °C cure, 0.2% metal on solids), 0.5%; in data set [2] (200 °C cure, 0.2% metal on solids), 0.7%. Moreover, the “MIBK Double Rubs” value in data set [1] (setting [6]) is recorded as 20; in data set [1] (setting [7]), 40; in data set [1] (150° C. cure, 1% Sn on solids) it was no less than 200; in data set [1] (setting [8]) it was no less than 200; in data set [1] (setting [9]) it was no less than 200; in data set [1] (180° C. cure, 1% Sn on solids), no less than 200. Besides, the “Rating for Abrasion by MIBK Rub Test” value in data set [4] (135 °C oven) turned out to be 3; in data set [4] (148.8 °C oven), 1; in data set [4] (165.5-185 °C oven) it was 1. For the same compound, in data set [3], the “Gel Time” value is listed as greater than 60 min. Further, the Increase in viscosity result in data set [3] was “no inc. in visc”.

With `CCCCCCCCCCCC[S][Sn]([CH2]CCCCCCC)([CH2]CCCCCCC)[CH2]CCCCCCC` [TOTS, Trioctyltin laurylmercaptide], the “MIBK Double Rubs” value is on record as 2 in data set [1] (setting [15]); 2 in data set [1] (setting [16]); 3 in data set [1] (setting [17]); 2 in data set [1] (setting [18]); 50 in data set [1] (setting [19]); no less than 200 in data set [1] (setting [20]).

On to `O=C([O-])C(=O)[O-].[Zn+2]` [ZnO xalate], for which the “% Weight Loss (acetone)” value in data set [2] (setting [10]) is 84.9%; in data set [2] (setting [11]) it was 83.1%; in data set [2] (setting [12]) it was 76.6%; in data set [2] (setting [13]), 56.2%; in data set [2] (setting [14]), 28.3%.

Regarding `CCC[CH2][Sn]([CH2]CCC)([CH2]CCC)[O][Sn]([CH2]CCC)([CH2]CCC)[CH2]CCC` [TBTO, Bis(tributyltin) oxide], the “MIBK Double Rubs” value in data set [1] (setting [7]) is reported as 20; in data set [1] (150° C. cure, 1% Sn on solids), no less than 200; in data set [1] (setting [8]), no less than 200; in data set [1] (setting [9]), no less than 200; in data set [1] (180° C. cure, 1% Sn on solids), no less than 200. Besides, the “Rating for Abrasion by MIBK Rub Test” value amounted to 4 in data set [4] (135 °C oven), 1 in data set [4] (148.8 °C oven) and 1 in data set [4] (165.5-185 °C oven).

Regarding `c1cc[c]([Sn]([O][Sn]([c]2ccccc2)([c]2ccccc2)[c]2ccccc2)([c]2ccccc2)[c]2ccccc2)cc1` [TPTO, bis(triphenyltin)oxide], the figures for the “Rating for Abrasion by MIBK Rub Test” value in data set [4] (135 °C oven), in data set [4] (148.8 °C oven) and in data set [4] (165.5-185 °C oven) were 2, 1 and 1, respectively.

Turning to “dibutyltin dilaurate [DBTDL, reference compound]”, the “GEL TIME” value was 31 min in data set [5] (0.095% Sn); 19 min and 19.4 min in data set [5] (0.15% Sn).
